Measured values as given in PubChem BioAssay AID504834 (National Center for Advancing Translational Sciences (NCATS), 2011).
The whole screen tested about 320,000 compounds, of which about 22,000 (6.9%) were called active. This list was built around the results that the source calls inconclusive (neither active nor inactive); the mix of calls is not that of the screen. Calls come from the whole dose curve; as a rule, active = well fitted inhibition curve with a large enough effect; inconclusive = small, poorly fitted or top-dose-only effect, or another doubt; inactive = no such curve, though single readings can be large or run the other way. Where the call is inconclusive, the potency comes from a doubtful curve fit.

Test: Primary qHTS for delayed death inhibitors of the malarial parasite plastid, 96 hour incubation
Conditions: P. falciparum luciferase reporter growth; series mostly up to 28.7 µM
Outline: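 Cell-based qHTS: luciferase-tagged P. falciparum in erythrocytes (2% hematocrit, 0.05% parasitemia final) incubated with compounds for 96 hours, 37 C, 5% CO2; luciferase detection reagent then added and luminescence measured.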
Potency is the fitted concentration of half-maximal effect.

Compound | Potency
CCOC(=O)N1CCN(CCC(=O)Nc2cccc(Cl)c2C)CC1 | inactive
COC(=O)C(CCSC)NC(=O)c1cn(-c2ccc(OC)cc2)c(=O)c2ccccc12 (stereo not given) | inconclusive: 18.5 µM [inhibitor, single point]
COc1cc(NC(=O)c2ccc(Br)cc2)ccc1NC(=O)c1cc2ccccc2o1 | inconclusive: 0.262 µM [inhibitor, full curve, poor fit]
O=C(/C=C/Sc1ncn[nH]1)c1ccc(Cl)cc1 | inconclusive: 18.5 µM [inhibitor, single point]
Cc1ccc(C)c(S(=O)(=O)Nc2cc3c4c(c2)CCC(=O)N4CCC3)c1 | inconclusive: 20.8 µM [inhibitor, partial curve, poor fit]
Cc1nc2c3ccccc3nc(NNC(=O)CCC(=O)N3CCCC(C)C3)n2n1 (stereo not given) | active: 9.28 µM
COc1cccc(-c2ncc3ccccc3c2COC(=O)c2ccc(F)cc2)c1 | inconclusive: 13.1 µM [inhibitor, single point]
Cc1cccc(-c2nnc(SCCC(=O)N3CCOCC3)o2)c1 | inconclusive: 13.1 µM [inhibitor, partial curve, poor fit]
O=C(NC1CC1)C1CCN(C(=O)c2ccc(Cl)cc2Cl)CC1 | inconclusive: 4.65 µM [inhibitor, partial curve, poor fit]
COc1ccc2c(c1)-c1nc(/N=C/c3ccc(O)c(OC)c3)sc1CC2 | inconclusive: 11.7 µM [inhibitor, single point]
COc1ccc(OCC(=O)Nc2ccccc2O)cc1 | inactive
COc1cc2ncnc(NCCCN3CCOCC3)c2cc1OC | inconclusive: 18.5 µM [inhibitor, single point]
O=C1/C(=C\c2ccsc2)NC(=S)N1c1ccccc1 | inconclusive: 10.4 µM [inhibitor, single point]
Cc1ccc(CSCCNC(=O)c2ccc(Cl)c(S(=O)(=O)N3CCOCC3)c2)cc1 | active: 5.22 µM
C/C(=N/NC(=O)c1cc(-c2ccc(Cl)s2)[nH]n1)c1ccco1 | inconclusive: 18.5 µM [inhibitor, single point]
C/C(=N\N1CCN(C)CC1)c1ccc(Cl)c(Cl)c1 | inactive
COc1cccc(C(=O)NN=C2CCCC2)c1 | inconclusive: 18.5 µM [inhibitor, single point]
CCC(C)NC(=O)C(Cc1ccccc1)NS(=O)(=O)c1ccc2c(c1)CCC(=O)N2 (stereo not given) | inconclusive: 18.5 µM [inhibitor, single point]
CN(C)c1ccc(/C=[N+](\[O-])C(C)(C)/C=N/O)cc1 | inconclusive: 0.522 µM [inhibitor, full curve, poor fit]
COc1ccc([C@@H]2[C@@H]3C(=O)N(C(C)(C)C)C(=O)[C@@H]3[C@]3(Cc4ccccc4)C(=O)N(c4cccc(C)c4)C(=O)N23)cc1 | inconclusive: 18.5 µM [inhibitor, single point]
Cc1ccc(CSCc2nnc(SCC(=O)N3CCN(c4ccccc4)CC3)n2C)cc1 | inconclusive: 14.7 µM [inhibitor, single point]
COc1ccc(C(=O)/C=C/c2ccc(F)cc2)c(OC(=O)c2ccc([N+](=O)[O-])cc2)c1 | inactive
CC1(C)CC(=O)C(N=Nc2cccc([N+](=O)[O-])c2)=C(O)C1 | inactive
CCOc1ccccc1-n1c(CN2CCN(C(=O)c3ccco3)CC2)nc2ccccc2c1=O | inconclusive: 4.15 µM [inhibitor, partial curve]

Compound | Potency
c1ccc(Cn2c(-c3ccccc3)c[n+]3c2SCCC3)cc1 | inconclusive: 0.586 µM [inhibitor, partial curve, poor fit]
O=C(CCn1c(=O)oc2ccccc21)Nc1ccc(C(=O)O)cc1 | inactive
CCC(CC)C(=O)Nc1nnc(SCC(=O)NC2CC2)s1 | inactive
CC(=O)N1CCN(C(=O)CCc2c[nH]c3ccccc23)CC1 | inactive
CC1Sc2ccc(S(=O)(=O)CCC(=O)NCc3cccs3)cc2NC1=O (stereo not given) | inconclusive: 10.4 µM [inhibitor, single point]
CCc1ncc(CN2CCCC(C(=O)Nc3cccc(-c4cccc(C)c4)c3)C2)cn1 (stereo not given) | inactive
CC(=O)N(CN1C(=O)CCC1=O)c1cccc(Cl)c1 | inactive
Cc1ccc(C(=O)O)cc1NC(=O)CSc1ncnc2sc3c(c12)CCC3 | inactive
CCOC(=O)N1CCN(C(=O)c2ccc3c(=O)n(-c4cc(OC)ccc4OC)c(=S)[nH]c3c2)CC1 | inconclusive: 18.5 µM [inhibitor, single point]
CN(C)c1ccc(/C=N/NC(=O)CCCCCNC(=O)c2ccccc2)cc1 | inconclusive: 18.5 µM [inhibitor, partial curve, poor fit]
CC(=O)c1c(C)[nH]c(C(=O)Nc2cc(F)ccc2C)c1C | inactive
COc1cccc(C(=O)Oc2ccc3c(C)cc(=O)oc3c2C(C)=O)c1 | inactive
O=C(Nc1ccccc1N1CCCC1)C1=COCCO1 | inconclusive: 18.5 µM [inhibitor, single point]
CCOC(=O)c1ccc(Cn2c(-c3ccccc3)nnc2-c2ccccc2)o1 | inactive
CCN(CC)CCNCc1nc2ccccc2c(=O)n1-c1ccc(F)cc1 | inactive
OCCCNc1ncnc2oc(-c3ccccc3)c(-c3ccccc3)c12 | inconclusive: 8.28 µM [inhibitor, partial curve]
O=C(CN(c1cccc(C(F)(F)F)c1)S(=O)(=O)c1ccc(Cl)c([N+](=O)[O-])c1)NCc1ccc(F)cc1 | active: 14.7 µM
COc1ccc(CN2CCNC(=O)C2CC(=O)N(C)CCC2CCOCC2)cc1OC (stereo not given) | inconclusive: 18.5 µM [inhibitor, single point]
Cc1ccc(S(=O)(=O)N2CCCCC2)cc1NC(=O)c1ccc2c(=O)n3c(nc2c1)CCCCC3 | inconclusive: 18.5 µM [inhibitor, single point]
Cc1cc(C)nc(NS(=O)(=O)c2ccc(NC(=O)CSc3nc4ccccc4[nH]3)cc2)n1 | inconclusive: 18.5 µM [inhibitor, single point]
COc1ccc(C(=O)c2c3ccc([N+](=O)[O-])cc3[n+]([O-])n2CCCC(N)=O)cc1 | inconclusive: 16.5 µM [inhibitor, single point]
Cc1ccc(C)c(Oc2cc(F)nc(N)n2)c1 | inactive
O=C(NCc1cccnc1)c1cccc(S(=O)(=O)N2CCOCC2)c1 | inactive
CN(C)c1cccc(N=C2C=C(N3CCOCC3)CC(C)(C)C2)c1 | inactive

Reformatted: results already given
Compound	Potency
CCN(CC)CCNCc1nc2ccccc2c(=O)n1-c1ccc(F)cc1	inactive
OCCCNc1ncnc2oc(-c3ccccc3)c(-c3ccccc3)c12	inconclusive: 8.28 µM [inhibitor, partial curve]
O=C(CN(c1cccc(C(F)(F)F)c1)S(=O)(=O)c1ccc(Cl)c([N+](=O)[O-])c1)NCc1ccc(F)cc1	active: 14.7 µM

Later entries:

Compound | Potency
Cc1ccc(C)c(NC(=O)C2CC(O)CN2C(=O)Oc2ccccc2)c1 (stereo not given) | inactive
O=C(COC(=O)c1ccc(F)c(S(=O)(=O)N2CCOCC2)c1)NC1CCCCC1 | inconclusive: 18.5 µM [inhibitor, single point]
Cc1cc(C)c2c(=O)n(CC(=O)N3CCC(Cc4ccccc4)CC3)sc2n1 | inactive
Cc1cccc2nc(CSC(=N)N)c(Br)n12 | inconclusive: 10.4 µM [inhibitor, single point]
O=C(O)/C=C/C(=O)Nc1ccc(Cl)cc1C(=O)c1ccccc1 | inconclusive: 1.65 µM [inhibitor, full curve]
CC1CCN(C(=S)c2ccc3c(c2)OCO3)CC1 | inconclusive: 2.94 µM [inhibitor, single point]
CCC(C)Sc1nnc(CSc2nc3nc(C)cc(C)n3n2)o1 (stereo not given) | inconclusive: 13.1 µM [inhibitor, partial curve, poor fit]
Cc1cc(-c2ccco2)n(CC(=O)NCc2ccco2)n1 | inconclusive: 8.28 µM [inhibitor, partial curve, poor fit]
CCOc1ccc(OCCCN(C)C)cc1 | inconclusive: 18.5 µM [inhibitor, single point]
O=c1ccc(Br)c[nH]1 | inconclusive: 4.15 µM [inhibitor, single point]
CC1CCC/C(=C\Nc2ccccc2C(=O)O)C1=O (stereo not given) | inconclusive: 2.33 µM [inhibitor, single point]
Cc1nnc2sc(SCC(=O)N3CCCCC3)nn2c1=O | active: 0.828 µM
COc1ccc(C(C)NC(=O)Cc2ccc(Br)cc2)cc1 (stereo not given) | inconclusive: 11.7 µM [inhibitor, single point]
Cc1c(CN2CCN(C)C(CCO)C2)[nH]c2c(Cl)cccc12 (stereo not given) | inconclusive: 18.5 µM [inhibitor, single point]
O=C(NCCOc1cccnc1)c1ccc(OC2CCN(Cc3ccccn3)CC2)cc1 | inconclusive: 18.5 µM [inhibitor, single point]
CCOCCCNS(=O)(=O)c1cc(Br)cc2c1N(C(=O)C1CC1)CC2 | inactive
O=C(CN1C(=O)CSc2ccc(C(F)(F)F)cc21)Nc1ccccc1 | inconclusive: 18.5 µM [inhibitor, single point]
COCCn1c(C)cc(C(=O)CSc2nc(C)c(C)c(C)n2)c1C | inconclusive: 11.7 µM [inhibitor, partial curve, poor fit]
CCc1ccc(C2C(C#N)=C(N)N(N(C)C)C3=C2C(=O)CCC3)s1 (stereo not given) | inconclusive: 18.5 µM [inhibitor, single point]
Cc1cccc(C2c3[nH]c4ccccc4c3CCN2C(=O)c2cn(C)c3ccccc3c2=O)n1 (stereo not given) | inconclusive: 13.1 µM [inhibitor, partial curve, poor fit]
Cc1c(NC(=O)c2cccs2)cccc1C(=O)O | inactive
COc1ccc(NC(=O)CN(C)C(=O)c2cccc(S(=O)(=O)N3CCCc4ccccc43)c2)cc1 | inconclusive: 11.7 µM [inhibitor, partial curve, poor fit]
